Laboratory results published in patent US20050020501A1, “Methods of modulating the activity of mura” (SmithKline Beecham Corporation and SmithKline Beechm p.l.c., priority 2000, published 2005).
Counter-ions that a name gives are not always drawn. Some entries share one result that the patent states for a list of compounds.

Chains of the proteins cited; added tags and fusions are not shown. Lines headed by an entry give the natural chain unless they say otherwise; changes in a name come on top.
UniProt Q9S400: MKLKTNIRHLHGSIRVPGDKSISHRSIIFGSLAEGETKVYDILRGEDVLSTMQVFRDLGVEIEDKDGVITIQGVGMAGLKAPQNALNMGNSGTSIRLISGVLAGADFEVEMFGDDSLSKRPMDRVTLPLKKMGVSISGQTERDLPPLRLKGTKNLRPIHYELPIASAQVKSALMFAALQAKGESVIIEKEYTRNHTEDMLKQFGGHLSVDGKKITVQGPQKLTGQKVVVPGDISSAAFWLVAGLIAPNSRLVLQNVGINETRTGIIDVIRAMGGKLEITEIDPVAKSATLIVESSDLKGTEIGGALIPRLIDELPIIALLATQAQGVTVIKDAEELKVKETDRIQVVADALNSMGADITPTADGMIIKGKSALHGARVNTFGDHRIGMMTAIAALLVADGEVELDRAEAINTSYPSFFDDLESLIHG

Target: T1, EPSP Synthase (S. pneumoniae) (Streptococcus pneumoniae serotype 4, UniProt Q9S400)
T1 construct: made in house
Assay: EPSPS kinetic assay, fluorescence coupled detection of inorganic phosphate release
Type: biochemical
Settings: read-out: Ki vs. S3P, competitive vs. S3P, range given for ATA and its sodium and ammonium salts together
Excerpt: All chemicals including ATA and its salt forms are from Aldrich. SKF-26488-W3 was isolated as a high-throughput screen hit against EPSPS. Escherichia coli MurA (Marquardt, et al., J. Bacteriol., Vol. 174: 5748-5752 (1992)) and Streptococcus pneumoniae EPSPS (Du, et al., Eur. J. Biochem., Vol. 267: 222-227 (2000)) were expressed and purified as described previously.
The assays for both EPSPS and MurA are based on the detection of inorganic phosphate release. A fluorescence coupled assay was used for EPSPS and was performed in 100 mM HEPES, pH 7.0, 1 mM NH4Cl, 100 mM KCl. (Du, et al., Eur. J. Biochem., Vol. 267: 222-227 (2000)). MurA was assayed in 50 mM HEPES, pH 7.5, 1 mM DTI using the Malachite Green reagent (Lanzetta, et al., Anal. Biochem., Vol. 100: 95-97 (1979)). The Ki values were determined with fixed concentration of one substrate and varying concentrations of the other substrate and inhibitor. Data were analyzed using GraFit v4.09 (Erithacus Software Ltd.).

O=C(O)C1=CC(=C(c2ccc(O)c(C(=O)O)c2)c2ccc(O)c(C(=O)O)c2)C=CC1=O [ATA sodium salt] gave a Ki of 2.8 to 4.5 µM.
